Data published in patent US6596524.

Key:
[1] = test system: T1, BsmAI restriction endonuclease (native) (Bacillus stearothermophilus A664); assay: enzyme reaction in vitro; settings: positive control, lambda DNA; purified native protein; protein details: New England Biolabs; only the motif is given
T1 sequence: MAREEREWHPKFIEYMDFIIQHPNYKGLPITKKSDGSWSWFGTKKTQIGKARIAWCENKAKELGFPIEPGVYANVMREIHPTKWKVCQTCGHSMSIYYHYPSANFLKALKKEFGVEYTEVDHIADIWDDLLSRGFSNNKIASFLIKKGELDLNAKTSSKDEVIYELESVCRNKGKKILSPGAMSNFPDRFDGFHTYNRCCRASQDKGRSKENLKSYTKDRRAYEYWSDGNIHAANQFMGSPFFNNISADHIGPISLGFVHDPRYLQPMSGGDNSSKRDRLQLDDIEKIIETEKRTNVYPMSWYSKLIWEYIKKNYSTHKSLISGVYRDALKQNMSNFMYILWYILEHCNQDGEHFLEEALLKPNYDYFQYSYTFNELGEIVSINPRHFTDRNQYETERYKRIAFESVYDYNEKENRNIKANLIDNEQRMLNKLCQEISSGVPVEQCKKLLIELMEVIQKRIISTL

[2] = test system: T2, BsmAI restriction endonuclease (recombinant) (Bacillus stearothermophilus A664); assay: enzyme reaction in vitro; settings: lambda DNA digested by serially diluted cell extract; cleaves N1/N5 giving 4-base 5' overhang; protein in a lysate after overexpression; only the motif is …
T2 sequence: T1 sequence

[3] = test system: T3, BsmAI methylase (M.BsmAI) (Bacillus stearothermophilus A664); assay: activity in cells; settings: plasmid expressing methylase becomes resistant to BsmAI digestion; protein in cells; only the motif is given
T3 sequence (limits assumed): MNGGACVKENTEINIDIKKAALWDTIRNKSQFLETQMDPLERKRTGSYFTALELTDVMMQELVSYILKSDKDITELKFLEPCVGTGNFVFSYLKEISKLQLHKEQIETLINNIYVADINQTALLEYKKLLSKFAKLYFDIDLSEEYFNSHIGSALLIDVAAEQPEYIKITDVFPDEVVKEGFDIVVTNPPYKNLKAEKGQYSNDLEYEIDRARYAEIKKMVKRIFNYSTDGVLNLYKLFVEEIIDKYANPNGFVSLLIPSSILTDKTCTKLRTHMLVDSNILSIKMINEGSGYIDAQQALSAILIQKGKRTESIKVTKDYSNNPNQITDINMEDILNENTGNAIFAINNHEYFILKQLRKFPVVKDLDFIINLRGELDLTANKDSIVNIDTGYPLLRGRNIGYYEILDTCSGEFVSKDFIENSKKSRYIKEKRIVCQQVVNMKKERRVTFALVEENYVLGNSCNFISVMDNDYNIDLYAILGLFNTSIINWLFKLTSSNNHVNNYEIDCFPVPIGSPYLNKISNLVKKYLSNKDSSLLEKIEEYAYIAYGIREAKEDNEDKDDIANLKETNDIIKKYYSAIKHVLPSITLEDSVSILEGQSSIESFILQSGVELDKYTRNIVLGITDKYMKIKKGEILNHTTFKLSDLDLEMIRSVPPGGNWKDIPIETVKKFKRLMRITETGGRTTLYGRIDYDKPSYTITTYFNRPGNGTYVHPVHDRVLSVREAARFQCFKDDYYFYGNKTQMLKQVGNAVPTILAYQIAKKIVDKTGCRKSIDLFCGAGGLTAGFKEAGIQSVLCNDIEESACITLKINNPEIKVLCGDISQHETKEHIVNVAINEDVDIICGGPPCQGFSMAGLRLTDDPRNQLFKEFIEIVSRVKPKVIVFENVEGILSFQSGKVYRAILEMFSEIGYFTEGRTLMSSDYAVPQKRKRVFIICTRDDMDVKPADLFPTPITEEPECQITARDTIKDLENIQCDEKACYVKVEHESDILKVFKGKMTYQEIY

| Sequence | activity on this sequence [1] | activity on this sequence [2] | activity on this sequence [3] |
| --- | --- | --- | --- |
| GTCTC (double strand) [BsmAI recognition site (in lambda DNA)] | active | active |  |
| GTCTC (double strand) [BsmAI recognition site (in pBR322 plasmid carrying bsmAIM)] |  |  | active |

For at least one entry, the source does not settle the construct or the ends of the probe. Protein sequences can lack the tags named with them.
